Results reported in publication PMC9832388.
Results are given in words; binding and its absence hold for the method and conditions named. Some entries that bind do so weakly or less than the wild type.

Amino acid sequences for entries named in this document (tags omitted). A change or cut given only in a name is not applied to a line headed by its entry.
UniProt P01024: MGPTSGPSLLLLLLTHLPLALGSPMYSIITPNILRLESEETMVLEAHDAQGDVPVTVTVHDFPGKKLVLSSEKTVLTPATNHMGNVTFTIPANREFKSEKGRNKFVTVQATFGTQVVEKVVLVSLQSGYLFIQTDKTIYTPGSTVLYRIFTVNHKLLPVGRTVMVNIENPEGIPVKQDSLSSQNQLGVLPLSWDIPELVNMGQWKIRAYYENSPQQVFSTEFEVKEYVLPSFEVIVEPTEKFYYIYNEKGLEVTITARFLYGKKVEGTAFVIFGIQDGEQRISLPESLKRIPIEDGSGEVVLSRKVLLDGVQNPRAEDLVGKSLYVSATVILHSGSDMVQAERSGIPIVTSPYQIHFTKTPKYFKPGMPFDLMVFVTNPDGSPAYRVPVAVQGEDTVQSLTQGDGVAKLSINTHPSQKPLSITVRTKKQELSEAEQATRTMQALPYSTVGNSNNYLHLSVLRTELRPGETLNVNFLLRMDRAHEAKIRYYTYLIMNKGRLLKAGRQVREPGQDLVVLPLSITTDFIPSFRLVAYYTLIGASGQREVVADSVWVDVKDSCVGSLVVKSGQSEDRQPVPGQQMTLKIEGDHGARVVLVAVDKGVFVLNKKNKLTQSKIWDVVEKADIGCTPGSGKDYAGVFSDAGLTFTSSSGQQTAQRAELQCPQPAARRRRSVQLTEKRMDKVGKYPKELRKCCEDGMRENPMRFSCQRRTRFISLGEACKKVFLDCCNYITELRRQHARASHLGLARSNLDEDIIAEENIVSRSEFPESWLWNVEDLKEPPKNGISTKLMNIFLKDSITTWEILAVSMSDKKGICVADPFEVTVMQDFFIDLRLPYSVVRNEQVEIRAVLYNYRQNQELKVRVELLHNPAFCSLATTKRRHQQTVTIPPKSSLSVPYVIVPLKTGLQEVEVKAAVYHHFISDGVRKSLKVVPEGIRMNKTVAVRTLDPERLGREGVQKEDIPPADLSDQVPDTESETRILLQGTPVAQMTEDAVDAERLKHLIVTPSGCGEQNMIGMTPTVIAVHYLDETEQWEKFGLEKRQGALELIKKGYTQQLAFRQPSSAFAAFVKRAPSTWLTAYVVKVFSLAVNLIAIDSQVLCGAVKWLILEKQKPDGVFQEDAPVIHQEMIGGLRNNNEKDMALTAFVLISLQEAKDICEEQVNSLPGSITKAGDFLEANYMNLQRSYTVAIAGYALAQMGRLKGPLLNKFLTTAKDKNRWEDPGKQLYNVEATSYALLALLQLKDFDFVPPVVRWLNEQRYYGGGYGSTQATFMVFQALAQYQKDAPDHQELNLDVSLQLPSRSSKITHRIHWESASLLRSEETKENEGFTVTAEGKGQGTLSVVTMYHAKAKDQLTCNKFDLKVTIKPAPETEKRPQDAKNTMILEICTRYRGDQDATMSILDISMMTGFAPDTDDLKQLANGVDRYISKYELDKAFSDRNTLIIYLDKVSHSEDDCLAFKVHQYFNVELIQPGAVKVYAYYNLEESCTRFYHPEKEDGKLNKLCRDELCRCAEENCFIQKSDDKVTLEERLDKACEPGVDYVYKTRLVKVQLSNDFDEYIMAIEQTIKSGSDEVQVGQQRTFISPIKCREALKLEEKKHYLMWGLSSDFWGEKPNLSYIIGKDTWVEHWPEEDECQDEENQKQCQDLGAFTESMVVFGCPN
UniProt P05156: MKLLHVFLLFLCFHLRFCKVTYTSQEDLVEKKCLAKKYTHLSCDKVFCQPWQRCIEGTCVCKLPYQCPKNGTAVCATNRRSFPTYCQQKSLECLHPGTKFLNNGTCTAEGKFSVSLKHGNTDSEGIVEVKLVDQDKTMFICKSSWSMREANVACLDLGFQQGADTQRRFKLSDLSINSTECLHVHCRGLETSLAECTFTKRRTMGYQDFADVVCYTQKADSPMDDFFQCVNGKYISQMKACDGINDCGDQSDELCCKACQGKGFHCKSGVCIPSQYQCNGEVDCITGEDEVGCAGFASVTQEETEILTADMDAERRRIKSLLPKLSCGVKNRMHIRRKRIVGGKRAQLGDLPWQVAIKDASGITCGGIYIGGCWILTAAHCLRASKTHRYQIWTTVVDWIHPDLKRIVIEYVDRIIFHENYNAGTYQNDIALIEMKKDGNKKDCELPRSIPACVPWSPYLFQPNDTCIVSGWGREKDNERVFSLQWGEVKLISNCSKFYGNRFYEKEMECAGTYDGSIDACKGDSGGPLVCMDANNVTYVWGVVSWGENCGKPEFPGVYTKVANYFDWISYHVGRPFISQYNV

Experiments:
[1] = molecular target: C3b with FH-like protein 1 (FHL-1) (UniProt P01024); assay: SPR; AP regulatory TMCs assembled on the chip with other cofactors (FHL-1, sCR1, MCP); conditions only in the supplement; both purified
[2] = molecular target: C3b with soluble complement receptor 1 (sCR1, CD35) (TP10) (UniProt P01024); assay: as above

binding [1]: binds | binding [2]: binds
Substance: inactive FI (S525A FI) (from UniProt P05156 19-335; P05156 340-583) (enzyme)
